Reference: patent US20060111289A1, “Compositions and methods of using Alpha-fetoprotein growth inhibitory peptides” (Serometrix, LLC,, priority 2004, published 2006)
At least one compound was matched to its structure with a doubt left. Where a SMILES comes first, the peptide text is derived from it.

System: MCF-7 cells
Assay: MCF-7 cell proliferation assay (8 days, sulforhodamine B)
Assay type: cell-based, human
Conditions: trypan blue determination
Procedure: MCF-7 cells were seeded at 25,000 cells/well in 48 well microtiter plates, and incubated for eight days in the various test and control reagents. […] Tumor cells were fixed after 8 days and analyzed for proliferation using the standard sulfarhodamine B staining procedure.

CC[C@H](C)[C@H](NC(=O)[C@@H]1CSSC[C@H](NC(=O)[C@H](C)NC(=O)[C@H](CC(C)C)NC(=O)[C@H](CC(C)C)NC(=O)[C@H](CCCCN)NC(=O)[C@H](CC(=O)O)NC(=O)[C@H](CCC(=O)O)NC(=O)[C@H](CO)NC(=O)[C@@H](N)CC(C)C)C(=O)NCC(=O)N[C@@H](CCC(=O)O)C(=O)NCC(=O)N[C@@H](C)C(=O)N[C@@H](C)C(=O)N[C@@H](CC(=O)O)C(=O)N[C@@H]([C@@H](C)CC)C(=O)N[C@@H]([C@@H](C)CC)C(=O)N[C@@H]([C@@H](C)CC)C(=O)NCC(=O)N[C@@H](Cc2c[nH]cn2)C(=O)N[C@@H](CC(C)C)C(=O)N1)C(=O)N[C@@H](CCCNC(=N)N)C(=O)N[C@@H](Cc1c[nH]cn1)C(=O)N[C@@H](CCC(=O)O)C(=O)N[C@@H](CCSC)C(=O)N[C@H](C(=O)N1CCC[C@H]1C(=O)N[C@H](C(=O)N[C@@H](CC(N)=O)C(=O)N1CCC[C@H]1C(=O)NCC(=O)N[C@H](C(=O)O)C(C)C)C(C)C)[C@@H](C)O [Cyclic GIP] (HELM PEPTIDE1{L.S.E.D.K.L.L.A.C.G.E.G.A.A.D.I.I.I.G.H.L.C.I.R.H.E.M.T.P.V.N.P.G.V}$PEPTIDE1,PEPTIDE1,9:R3-22:R3$$$V2.0; N-terminus and C-terminus assumed) was tested, and the Cell viability was > 95%.
